Source: publication PMC11026413
These are yes or no findings as the source states them, for the method shown. Binding seen in cells or lysates may run through a third protein. Some results given as binding are weak or reduced against the parent protein; the word gives no strength. Each block holds one substance with its values, some of them ahead of it.

Sequences of proteins named here, by UniProt entry; tags and fusion partners are left off.
UniProt Q9VQE0: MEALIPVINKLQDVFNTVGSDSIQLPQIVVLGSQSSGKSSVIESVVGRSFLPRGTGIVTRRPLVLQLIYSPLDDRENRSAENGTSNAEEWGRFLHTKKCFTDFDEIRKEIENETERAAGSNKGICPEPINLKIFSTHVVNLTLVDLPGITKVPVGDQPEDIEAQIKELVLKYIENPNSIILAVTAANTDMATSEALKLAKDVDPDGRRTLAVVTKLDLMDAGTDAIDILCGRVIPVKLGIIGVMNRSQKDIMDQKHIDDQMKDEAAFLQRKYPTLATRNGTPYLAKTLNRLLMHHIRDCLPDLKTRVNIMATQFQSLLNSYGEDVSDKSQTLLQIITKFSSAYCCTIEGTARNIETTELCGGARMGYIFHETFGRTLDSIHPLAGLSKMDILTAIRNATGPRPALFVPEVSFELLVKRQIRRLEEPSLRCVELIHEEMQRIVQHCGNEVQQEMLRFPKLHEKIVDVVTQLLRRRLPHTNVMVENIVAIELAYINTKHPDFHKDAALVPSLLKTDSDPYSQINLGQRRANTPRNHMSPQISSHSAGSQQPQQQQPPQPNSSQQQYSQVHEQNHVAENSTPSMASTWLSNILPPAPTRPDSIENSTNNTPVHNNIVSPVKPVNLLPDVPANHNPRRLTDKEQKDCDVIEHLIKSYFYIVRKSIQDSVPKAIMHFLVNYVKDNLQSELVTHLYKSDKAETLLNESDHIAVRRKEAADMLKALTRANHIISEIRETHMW
UniProt Q9VT57: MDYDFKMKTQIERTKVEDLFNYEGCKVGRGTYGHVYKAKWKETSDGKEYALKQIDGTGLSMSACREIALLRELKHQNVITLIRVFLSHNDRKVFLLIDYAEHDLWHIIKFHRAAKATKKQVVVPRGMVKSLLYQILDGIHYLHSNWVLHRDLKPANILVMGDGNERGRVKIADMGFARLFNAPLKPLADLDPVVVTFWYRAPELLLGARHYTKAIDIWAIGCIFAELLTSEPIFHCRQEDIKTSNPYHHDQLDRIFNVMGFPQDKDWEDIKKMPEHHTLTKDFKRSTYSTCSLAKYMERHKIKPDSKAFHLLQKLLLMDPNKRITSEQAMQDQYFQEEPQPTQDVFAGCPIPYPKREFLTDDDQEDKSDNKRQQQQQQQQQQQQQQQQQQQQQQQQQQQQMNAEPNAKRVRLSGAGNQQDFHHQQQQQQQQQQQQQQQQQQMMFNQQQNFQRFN

Legend:
[1] = target: HA-tagged Drp1 (UAS-Drp1^HA expressed in fly muscle with Mhc-Gal4) (Drosophila melanogaster) (UniProt Q9VQE0); assay: co-IP; protein extracts of adult thoraxes (MhcGal4 > UAS-Drp1^HA + Cdk8::GFP, 25 °C), pre-cleared with IgG, incubated with anti-HA or IgG beads overnight at 4 °C; Cdk8::GFP detected with rabbit anti-GFP
[2] = target: Myc-tagged Cdk8 (pAWM-Cdk8) (Drosophila melanogaster) (UniProt Q9VT57); assay: co-IP; S2R+ cells co-transfected with Myc-tagged Cdk8 and HA-tagged Drp1; extracts incubated with IgG, HA or Myc-agarose beads overnight at 4 °C; Western blot
[3] = target: Myc-tagged Cdk8 (pAWM-Cdk8) (Drosophila melanogaster) (UniProt Q9VT57); assay: co-IP; cytoplasmic fractions of S2R+ cells with pAWM-Cdk8 and pAWH-Drp1, Myc-agarose beads overnight at 4 °C, then in vitro kinase assay with or without 0.2 mM ATP; Drp1 detected with anti-Drp1
[4] = target: HA-tagged Drp1 (pAWH-Drp1) (Drosophila melanogaster) (UniProt Q9VQE0); assay: co-IP; S2R+ cells co-transfected with Myc-tagged Cdk8 and HA-tagged Drp1; extracts incubated with IgG, HA or Myc-agarose beads overnight at 4 °C; Western blot

binding [1]: binds
Substance: Cdk8-superfolder-GFP fusion protein (endogenous GFP-tagged Cdk8) (from UniProt Q9VT57 1-454)

binding [2]: binds | binding [3]: binds
Substance: HA-tagged Drp1 (pAWH-Drp1) (from UniProt Q9VQE0 1-735)

binding [4]: binds
Substance: Myc-tagged Cdk8 (pAWM-Cdk8) (from UniProt Q9VT57 1-454)
